Results published in patent publication US7223547B2, “Polypeptides having a functional domain of interest and methods of identifying and using same” (Cytogen Corporation, priority 1995, dated 2007).
No constants are given. Whether binding was seen depends on the method and setting. Some results given as binding are weak or reduced against the parent protein; the word gives no strength.

Chains of the proteins cited; added tags and fusions are not shown.
UniProt P07948: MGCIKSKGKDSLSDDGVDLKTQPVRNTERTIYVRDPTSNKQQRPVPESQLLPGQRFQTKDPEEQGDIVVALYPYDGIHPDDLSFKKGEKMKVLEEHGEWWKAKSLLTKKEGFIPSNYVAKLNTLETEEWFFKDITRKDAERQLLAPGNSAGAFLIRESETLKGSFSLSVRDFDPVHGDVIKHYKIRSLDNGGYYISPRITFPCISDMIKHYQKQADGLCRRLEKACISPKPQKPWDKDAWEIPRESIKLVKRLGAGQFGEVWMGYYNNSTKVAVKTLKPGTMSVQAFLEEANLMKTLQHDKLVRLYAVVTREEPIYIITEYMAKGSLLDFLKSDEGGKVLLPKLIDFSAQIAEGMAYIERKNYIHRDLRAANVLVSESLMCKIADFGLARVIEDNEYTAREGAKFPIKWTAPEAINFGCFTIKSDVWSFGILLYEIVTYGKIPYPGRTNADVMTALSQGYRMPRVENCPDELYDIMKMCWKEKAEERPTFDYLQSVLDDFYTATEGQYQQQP
UniProt P06241: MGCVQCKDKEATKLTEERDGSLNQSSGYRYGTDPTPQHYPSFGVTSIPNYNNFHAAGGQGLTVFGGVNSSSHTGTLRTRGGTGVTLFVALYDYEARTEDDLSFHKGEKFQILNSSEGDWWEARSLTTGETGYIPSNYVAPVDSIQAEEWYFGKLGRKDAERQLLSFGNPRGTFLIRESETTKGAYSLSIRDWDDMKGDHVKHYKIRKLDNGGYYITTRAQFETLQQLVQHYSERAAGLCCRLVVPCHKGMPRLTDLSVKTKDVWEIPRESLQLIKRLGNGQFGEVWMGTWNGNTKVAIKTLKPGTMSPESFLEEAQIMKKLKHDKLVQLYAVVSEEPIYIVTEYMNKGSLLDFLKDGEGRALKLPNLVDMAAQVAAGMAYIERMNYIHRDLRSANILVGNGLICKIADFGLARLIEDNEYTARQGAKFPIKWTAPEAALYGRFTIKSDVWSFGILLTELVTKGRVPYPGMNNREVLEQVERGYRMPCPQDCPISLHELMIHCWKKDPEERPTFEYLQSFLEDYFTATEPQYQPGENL

Legend:
[1] = molecular target: SH3P16 (Lyn) (human) (UniProt P07948); assay: plaque-lift screen of human prostate cancer and bone marrow cDNA expression libraries with biotinylated peptide complexed to SA-AP (T12SRC.4 also present in the initial screens)
[2] = molecular target: SH3P15 (Fyn) (human) (UniProt P06241); assay: as above

B1: T12SRC.1 (biotin-…-NH2) (peptide)
peptide: GILAPPVPPRNTR
modifications: N-terminal biotin; C-terminal amide (NH2)
With B1 the binding [1] was “binds” and the binding [2] was “binds”.
